{"source": "patent US20060128675A1", "about": "“Method for monitoring the effectiveness of teracycline in the treatment of asthma” (priority 2002, published 2006)", "origin": "cited, not measured here", "system": "human whole blood cultures", "conditions": "physiological doses; cited from earlier work", "note": "At least one compound was matched to its structure with a doubt left.", "data": [{"compound": "CN(C)[C@@H]1C(O)=C(C(N)=O)C(=O)[C@@]2(O)C(O)=C3C(=O)c4c(O)cccc4[C@@](C)(O)[C@H]3C[C@@H]12", "note": "[tetracycline]", "values": [{"measurement": "mitotic responses to phytohemagglutinin", "value": "inhibits mitotic responses to phytohemagglutinin"}]}]}
